Assay results published in paper PMC4272302.
These are yes or no findings as the source states them, for the method shown. For some of these results: In cells and extracts the contact can be indirect. Some entries that bind do so weakly or less than the wild type. For some of these results: Where a sequence is shown, tags or fusion partners need not be part of it. Each block holds one substance with its values, some of them ahead of it.

How the values were obtained:
MAP6d1-GFP (mouse) = MAP6d1-GFP (mouse) (UniProt Q14BB9); experiment: co-IP; COS-7 cells co-transfected with a GFP-tagged and a myc-tagged MAP6d1; lysed 15 h after transfection in IP buffer (50 mM Tris, 150 mM NaCl, 0.05% deoxycholate, 1% Triton X-100, 10% glycerol, pH 8.0); IP with anti-myc (Protein G-Sepharose) or anti-GFP (Protein A-Sepharose), 1 h at 4°C, five washes; western blot
LexA-MAP6d1 (mouse) = LexA-MAP6d1 (mouse) (UniProt Q14BB9); experiment: two-hybrid; yeast two-hybrid, LexA bait (pLex10) and GAD prey (pAct2); growth on medium lacking leucine, tryptophan and histidine, and β-galactosidase staining
MAP6d1-myc (mouse) = MAP6d1-myc (mouse) (UniProt Q14BB9); experiment: co-IP; COS-7 cells co-transfected with a GFP-tagged and a myc-tagged MAP6d1; lysed 15 h after transfection in IP buffer (50 mM Tris, 150 mM NaCl, 0.05% deoxycholate, 1% Triton X-100, 10% glycerol, pH 8.0); IP with anti-myc (Protein G-Sepharose) or anti-GFP (Protein A-Sepharose), 1 h at 4°C, five washes; western blot
MAP6d1-GGG-myc (mouse) = target: T1, MAP6d1-GGG-myc (mouse) (UniProt Q14BB9); experiment: as above
T1 sequence: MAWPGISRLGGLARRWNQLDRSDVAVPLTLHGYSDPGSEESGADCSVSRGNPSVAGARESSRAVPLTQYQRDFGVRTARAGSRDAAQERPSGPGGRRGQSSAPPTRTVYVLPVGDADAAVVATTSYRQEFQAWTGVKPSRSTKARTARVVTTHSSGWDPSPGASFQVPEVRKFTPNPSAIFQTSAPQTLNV

binding (MAP6d1-GFP (mouse)): binds
Substance: MAP6d1-myc (from UniProt Q14BB9 1-191)

binding (LexA-MAP6d1 (mouse)): binds
Substance: GAD-MAP6d1 (from UniProt Q14BB9 1-191)

binding (MAP6d1-myc (mouse)): binds
binding (MAP6d1-GGG-myc (mouse)): binds
Substance: MAP6d1-GFP (from UniProt Q14BB9 1-191)
